Measurements as given in paper PMC9988257.
Results are given in words; binding and its absence hold for the method and conditions named. Binding seen in cells or lysates may run through a third protein. Some binding calls cover weakened binding; strength is not graded here. For some assays here: Sequences can lack the tags named with a protein.

Sequences of proteins named here, by UniProt entry; tags and fusion partners are left off.
UniProt Q96A65: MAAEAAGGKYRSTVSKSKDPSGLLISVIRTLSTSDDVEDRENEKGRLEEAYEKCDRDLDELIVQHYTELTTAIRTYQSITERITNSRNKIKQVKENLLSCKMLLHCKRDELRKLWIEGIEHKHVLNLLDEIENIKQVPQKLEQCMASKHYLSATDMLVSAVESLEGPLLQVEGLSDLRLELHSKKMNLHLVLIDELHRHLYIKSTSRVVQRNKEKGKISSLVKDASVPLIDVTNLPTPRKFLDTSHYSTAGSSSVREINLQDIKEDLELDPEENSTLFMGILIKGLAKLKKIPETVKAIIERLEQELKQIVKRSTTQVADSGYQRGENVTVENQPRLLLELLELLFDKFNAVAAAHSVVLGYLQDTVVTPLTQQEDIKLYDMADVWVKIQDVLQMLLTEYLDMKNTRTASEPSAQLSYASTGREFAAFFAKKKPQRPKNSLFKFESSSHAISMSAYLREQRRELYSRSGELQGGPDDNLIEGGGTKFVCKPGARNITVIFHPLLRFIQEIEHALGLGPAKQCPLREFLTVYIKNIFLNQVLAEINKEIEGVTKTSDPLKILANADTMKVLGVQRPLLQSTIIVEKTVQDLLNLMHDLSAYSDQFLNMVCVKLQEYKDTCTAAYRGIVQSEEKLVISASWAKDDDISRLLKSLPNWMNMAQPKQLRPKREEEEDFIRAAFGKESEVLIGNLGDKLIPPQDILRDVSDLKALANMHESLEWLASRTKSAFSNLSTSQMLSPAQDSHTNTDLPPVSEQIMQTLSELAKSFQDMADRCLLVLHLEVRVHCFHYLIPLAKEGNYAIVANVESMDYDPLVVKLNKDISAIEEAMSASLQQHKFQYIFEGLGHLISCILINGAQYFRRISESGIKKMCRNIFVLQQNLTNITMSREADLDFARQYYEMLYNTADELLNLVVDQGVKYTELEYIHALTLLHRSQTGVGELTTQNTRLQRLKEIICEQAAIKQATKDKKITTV
UniProt Q9EQZ7: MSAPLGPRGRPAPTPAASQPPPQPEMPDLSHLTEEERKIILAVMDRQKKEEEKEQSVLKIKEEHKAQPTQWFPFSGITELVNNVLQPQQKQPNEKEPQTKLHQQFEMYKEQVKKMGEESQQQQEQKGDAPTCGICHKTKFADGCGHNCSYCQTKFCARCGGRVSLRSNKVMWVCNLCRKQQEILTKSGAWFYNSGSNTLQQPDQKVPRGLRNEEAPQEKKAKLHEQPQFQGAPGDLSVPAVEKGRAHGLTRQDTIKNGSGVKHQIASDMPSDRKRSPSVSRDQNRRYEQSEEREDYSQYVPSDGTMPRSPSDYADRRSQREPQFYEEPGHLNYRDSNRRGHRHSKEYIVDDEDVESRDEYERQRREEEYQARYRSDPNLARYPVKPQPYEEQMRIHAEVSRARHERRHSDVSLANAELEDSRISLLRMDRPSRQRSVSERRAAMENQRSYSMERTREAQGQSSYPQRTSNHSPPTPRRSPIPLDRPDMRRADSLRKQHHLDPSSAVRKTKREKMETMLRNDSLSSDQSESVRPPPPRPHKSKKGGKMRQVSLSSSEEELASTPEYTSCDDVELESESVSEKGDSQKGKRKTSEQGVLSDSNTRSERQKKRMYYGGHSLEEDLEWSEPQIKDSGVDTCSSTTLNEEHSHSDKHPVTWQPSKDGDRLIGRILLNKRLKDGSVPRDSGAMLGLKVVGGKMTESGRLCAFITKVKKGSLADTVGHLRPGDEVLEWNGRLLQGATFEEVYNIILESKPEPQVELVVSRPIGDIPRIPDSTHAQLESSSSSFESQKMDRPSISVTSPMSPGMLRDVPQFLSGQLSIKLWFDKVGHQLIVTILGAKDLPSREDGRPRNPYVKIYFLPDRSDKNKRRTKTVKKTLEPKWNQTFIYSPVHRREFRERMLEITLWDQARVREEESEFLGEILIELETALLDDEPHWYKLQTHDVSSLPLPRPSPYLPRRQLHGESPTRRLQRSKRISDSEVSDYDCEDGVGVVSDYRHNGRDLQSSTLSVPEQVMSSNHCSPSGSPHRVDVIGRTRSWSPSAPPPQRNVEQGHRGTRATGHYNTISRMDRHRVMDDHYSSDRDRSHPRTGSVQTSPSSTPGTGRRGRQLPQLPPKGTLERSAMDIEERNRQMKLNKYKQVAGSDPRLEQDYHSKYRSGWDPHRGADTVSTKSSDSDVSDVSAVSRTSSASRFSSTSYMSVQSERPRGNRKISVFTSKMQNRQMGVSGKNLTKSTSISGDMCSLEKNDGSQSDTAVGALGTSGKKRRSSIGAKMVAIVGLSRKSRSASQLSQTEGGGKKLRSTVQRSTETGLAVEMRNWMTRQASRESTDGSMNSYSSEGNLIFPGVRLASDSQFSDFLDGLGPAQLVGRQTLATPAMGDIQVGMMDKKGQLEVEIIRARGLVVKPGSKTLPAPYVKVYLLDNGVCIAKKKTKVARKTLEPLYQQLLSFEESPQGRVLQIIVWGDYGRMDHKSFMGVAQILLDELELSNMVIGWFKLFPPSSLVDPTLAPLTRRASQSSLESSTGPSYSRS

Tests used:
[1] = target: T1, mCherry-fused exophilin-8 (expressed in HEK293A cells) (mouse) (UniProt Q8K3I4); assay: co-IP; visible immunoprecipitation (VIP) assay: HEK293A cells co-transfected with mCherry-fused effector and EGFP-fused exocyst component; lysates precipitated with mCherry-nanobody-bound glutathione-Sepharose beads; EGFP and mCherry fluorescence on beads seen by confocal microscopy
T1 sequence: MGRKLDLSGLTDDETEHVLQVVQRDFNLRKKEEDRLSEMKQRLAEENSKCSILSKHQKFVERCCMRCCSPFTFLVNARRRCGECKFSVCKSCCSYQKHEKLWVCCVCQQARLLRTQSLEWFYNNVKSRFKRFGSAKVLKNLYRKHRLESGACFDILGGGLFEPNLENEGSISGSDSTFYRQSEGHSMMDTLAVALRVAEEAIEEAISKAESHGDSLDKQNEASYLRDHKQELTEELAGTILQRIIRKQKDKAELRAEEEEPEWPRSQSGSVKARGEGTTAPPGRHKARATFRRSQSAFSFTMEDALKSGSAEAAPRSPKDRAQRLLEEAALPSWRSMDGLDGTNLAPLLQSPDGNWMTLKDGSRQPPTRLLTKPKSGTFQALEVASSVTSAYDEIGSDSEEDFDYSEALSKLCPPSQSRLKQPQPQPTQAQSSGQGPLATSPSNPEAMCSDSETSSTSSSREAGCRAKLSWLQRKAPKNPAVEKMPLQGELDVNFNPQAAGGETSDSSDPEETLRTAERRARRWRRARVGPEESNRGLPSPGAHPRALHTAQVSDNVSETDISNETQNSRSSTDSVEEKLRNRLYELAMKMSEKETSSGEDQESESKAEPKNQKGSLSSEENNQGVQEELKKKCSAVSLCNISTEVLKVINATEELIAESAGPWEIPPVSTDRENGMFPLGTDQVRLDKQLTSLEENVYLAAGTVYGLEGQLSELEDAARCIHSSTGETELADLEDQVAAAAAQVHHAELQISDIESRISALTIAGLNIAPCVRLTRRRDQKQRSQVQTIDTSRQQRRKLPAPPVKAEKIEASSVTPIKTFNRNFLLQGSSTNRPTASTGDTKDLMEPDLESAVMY

[2] = target: T2, FLAG-tagged exophilin-8 (expressed in MIN6 cells) (mouse) (UniProt Q8K3I4); assay: co-IP; MIN6 cells expressing FLAG-tagged melanophilin or exophilin-8; immunoprecipitated with anti-FLAG antibody; immunoblotted for endogenous proteins
T2 sequence: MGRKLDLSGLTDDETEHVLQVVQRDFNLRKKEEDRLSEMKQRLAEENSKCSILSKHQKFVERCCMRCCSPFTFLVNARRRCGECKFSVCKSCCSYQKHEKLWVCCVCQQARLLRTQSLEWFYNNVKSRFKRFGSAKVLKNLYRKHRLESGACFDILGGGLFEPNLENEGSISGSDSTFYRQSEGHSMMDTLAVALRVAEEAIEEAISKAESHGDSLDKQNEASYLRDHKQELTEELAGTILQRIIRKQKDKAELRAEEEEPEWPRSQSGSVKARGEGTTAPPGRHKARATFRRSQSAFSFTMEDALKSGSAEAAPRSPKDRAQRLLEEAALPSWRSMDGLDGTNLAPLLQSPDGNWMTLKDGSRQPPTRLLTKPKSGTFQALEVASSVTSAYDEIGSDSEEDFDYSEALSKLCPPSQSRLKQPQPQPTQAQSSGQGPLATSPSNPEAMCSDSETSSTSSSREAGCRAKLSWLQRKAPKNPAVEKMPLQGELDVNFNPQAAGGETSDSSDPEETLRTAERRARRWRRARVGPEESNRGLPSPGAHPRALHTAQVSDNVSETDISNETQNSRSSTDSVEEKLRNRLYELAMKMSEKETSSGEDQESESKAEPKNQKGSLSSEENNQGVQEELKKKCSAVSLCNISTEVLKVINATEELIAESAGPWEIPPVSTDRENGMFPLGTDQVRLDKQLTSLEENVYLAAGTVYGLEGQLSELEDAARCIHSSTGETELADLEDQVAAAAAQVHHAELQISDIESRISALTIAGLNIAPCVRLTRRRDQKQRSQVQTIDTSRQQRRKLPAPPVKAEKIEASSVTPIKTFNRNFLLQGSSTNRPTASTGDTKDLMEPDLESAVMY

[3] = target: T3, OSF-tagged exophilin-8 (expressed in HEK293A cells) (mouse) (UniProt Q8K3I4); assay: pull-down; HEK293A cells co-transfected; cell extracts pulled down with Strep-Tactin beads; gel stained with Coomassie Brilliant Blue
T3 sequence: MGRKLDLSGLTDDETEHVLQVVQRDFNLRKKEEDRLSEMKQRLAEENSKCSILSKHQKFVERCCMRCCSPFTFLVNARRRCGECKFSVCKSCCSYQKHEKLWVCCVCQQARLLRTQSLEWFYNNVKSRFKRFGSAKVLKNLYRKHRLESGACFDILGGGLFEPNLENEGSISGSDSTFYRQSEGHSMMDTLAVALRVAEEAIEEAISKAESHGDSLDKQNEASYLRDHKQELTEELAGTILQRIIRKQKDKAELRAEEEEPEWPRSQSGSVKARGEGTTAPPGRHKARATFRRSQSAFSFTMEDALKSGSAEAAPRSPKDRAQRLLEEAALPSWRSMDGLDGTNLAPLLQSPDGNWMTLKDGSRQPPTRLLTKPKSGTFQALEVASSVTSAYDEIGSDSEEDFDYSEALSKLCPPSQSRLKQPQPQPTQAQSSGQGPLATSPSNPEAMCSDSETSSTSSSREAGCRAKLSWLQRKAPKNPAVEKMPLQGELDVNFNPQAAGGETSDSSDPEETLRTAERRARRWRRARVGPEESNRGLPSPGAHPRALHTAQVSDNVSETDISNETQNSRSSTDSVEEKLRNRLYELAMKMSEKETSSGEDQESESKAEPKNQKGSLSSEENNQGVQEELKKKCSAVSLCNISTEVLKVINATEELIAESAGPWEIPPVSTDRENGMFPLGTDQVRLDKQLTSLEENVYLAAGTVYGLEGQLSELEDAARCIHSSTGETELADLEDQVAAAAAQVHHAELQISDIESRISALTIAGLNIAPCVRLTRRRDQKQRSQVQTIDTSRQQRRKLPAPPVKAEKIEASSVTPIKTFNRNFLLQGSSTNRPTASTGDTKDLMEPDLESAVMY

[4] = target: T4, OSF-melanophilin (expressed in HEK293A cells) (mouse) (UniProt Q91V27); assay: as above
T4 sequence: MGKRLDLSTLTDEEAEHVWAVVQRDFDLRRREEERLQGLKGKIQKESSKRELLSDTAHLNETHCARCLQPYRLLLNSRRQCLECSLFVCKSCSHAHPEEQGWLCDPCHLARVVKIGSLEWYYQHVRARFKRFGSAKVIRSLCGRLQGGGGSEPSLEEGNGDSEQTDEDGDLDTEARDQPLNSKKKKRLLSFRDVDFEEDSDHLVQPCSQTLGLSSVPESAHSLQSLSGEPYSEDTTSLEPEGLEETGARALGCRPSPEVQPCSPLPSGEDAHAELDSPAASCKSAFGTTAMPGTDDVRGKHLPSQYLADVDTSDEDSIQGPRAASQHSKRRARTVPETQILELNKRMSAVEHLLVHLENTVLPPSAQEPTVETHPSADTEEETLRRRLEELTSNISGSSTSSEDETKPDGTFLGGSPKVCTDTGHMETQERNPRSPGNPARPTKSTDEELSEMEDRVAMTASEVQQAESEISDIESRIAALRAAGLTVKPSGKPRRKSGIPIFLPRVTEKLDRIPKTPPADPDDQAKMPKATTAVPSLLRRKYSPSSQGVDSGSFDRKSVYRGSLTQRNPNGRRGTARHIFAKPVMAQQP

Molecule: EGFP-fused SEC8 (human, expressed in HEK293A cells) (from UniProt Q96A65 1-974)
- binding [1]: binds

Molecule: RIM2 (endogenous, MIN6 cells) (from UniProt Q9EQZ7 1-1530)
- binding [2]: binds

B1: RIM-BP2 (endogenous, MIN6 cells) (protein, UniProt Q80U40 1-1072)
chain: MREAAERRQQLELEHEQALAFLNAKQQEIQLLQQAQVEAKKEHEGAVQLLESKVRELEEKCRVQSEQFNLLSRDLEKFRQHTGSIDLLGSSSVALLDVPLAPGKPFPQYMNGLATSIHKGHEGPTGHYSVIGDYIPLSGDKLESPCVKPSFLLRSSSPRCRFESEMDNDRNSNNSKQSSSGKVHLCVARYSYNPFDGPNENPEAELPLTAGKYLYVYGDMDEDGFYEGELLDGQRGLVPSNFVDFIQDNESRLAGTLGSEQDQNFLNHSGISLERDSILHLHSPTQVDSGITDNGGGTLDVNIDDIGEDTVPYPRKITLIKQLAKSVIVGWEPPAVPPGWGTVSSYNVLVDKETRMSLALGRRTKALIEKLNTAACTYRISVQCVTSRGNSDELQCTLLVGKDVVVAPSQLRVDNITQISAQLSWLPTNSNYSHIIFLNEEELDIVKAARYKYQFFNLRPNMAYKVKVLAQPHQMPWQLPLEQREKKEACVEFSTLPAGPPAPPQDVTVHAGATAASVQVSWKPPALTPTGLSNGANVTGYGVYAKGQRVAEVIAPTADGTAVELIRLRSLEAKAVSVRTLSVQGESMDSALAAIPPDLLVPPAPHPRTAPPPKPLASDMDTKDQHLGPHVKVDESWEQSRSPGPAHGHMLEPPDMHSAGPGRRSPSPSRILPQPQGAPVSTTVAKAMAREAAQRVAESNRLEKRSLFLEQSSAGQYTNSDEEDGYASPEVKRRGTSVDDFLKGSELGKQPHCCHGDEYHTESSRGSDLSDIMEEDEEELYSEMQLEDGGRRRPSGTSHNALKILGNSTLMGRADRMEHVSRRYSHSGGGSHRHRPAMAPSIDEYTGRDHLSPDFYDESETDPGAEELPARIFVALFDYDPLTMSPNPDAAEEELPFKEGQIIKVYGDKDADGFYRGETCARLGLIPCNMVSEIHADDEEMMDQLLRQGFLPLNTPVEKIERSRRSGRGHSVPTRRMVALYDYDPRESSPNVDVEAELPFCTGDIITVFGEIDEDGFYYGELNGQKGLVPSNFLEEVPDDVEVHLSDAPPHYSHDPPMRSKAKRKKSVHFTP
- binding [2]: binds

B2: Melanophilin (coexpressed with OSF-exophilin-8 in HEK293A cells) (protein, UniProt Q91V27 1-590)
chain: MGKRLDLSTLTDEEAEHVWAVVQRDFDLRRREEERLQGLKGKIQKESSKRELLSDTAHLNETHCARCLQPYRLLLNSRRQCLECSLFVCKSCSHAHPEEQGWLCDPCHLARVVKIGSLEWYYQHVRARFKRFGSAKVIRSLCGRLQGGGGSEPSLEEGNGDSEQTDEDGDLDTEARDQPLNSKKKKRLLSFRDVDFEEDSDHLVQPCSQTLGLSSVPESAHSLQSLSGEPYSEDTTSLEPEGLEETGARALGCRPSPEVQPCSPLPSGEDAHAELDSPAASCKSAFGTTAMPGTDDVRGKHLPSQYLADVDTSDEDSIQGPRAASQHSKRRARTVPETQILELNKRMSAVEHLLVHLENTVLPPSAQEPTVETHPSADTEEETLRRRLEELTSNISGSSTSSEDETKPDGTFLGGSPKVCTDTGHMETQERNPRSPGNPARPTKSTDEELSEMEDRVAMTASEVQQAESEISDIESRIAALRAAGLTVKPSGKPRRKSGIPIFLPRVTEKLDRIPKTPPADPDDQAKMPKATTAVPSLLRRKYSPSSQGVDSGSFDRKSVYRGSLTQRNPNGRRGTARHIFAKPVMAQQP
- binding [3]: no binding

B3: Exophilin-8 (coexpressed with OSF-melanophilin in HEK293A cells) (protein, UniProt Q8K3I4 1-856)
chain: MGRKLDLSGLTDDETEHVLQVVQRDFNLRKKEEDRLSEMKQRLAEENSKCSILSKHQKFVERCCMRCCSPFTFLVNARRRCGECKFSVCKSCCSYQKHEKLWVCCVCQQARLLRTQSLEWFYNNVKSRFKRFGSAKVLKNLYRKHRLESGACFDILGGGLFEPNLENEGSISGSDSTFYRQSEGHSMMDTLAVALRVAEEAIEEAISKAESHGDSLDKQNEASYLRDHKQELTEELAGTILQRIIRKQKDKAELRAEEEEPEWPRSQSGSVKARGEGTTAPPGRHKARATFRRSQSAFSFTMEDALKSGSAEAAPRSPKDRAQRLLEEAALPSWRSMDGLDGTNLAPLLQSPDGNWMTLKDGSRQPPTRLLTKPKSGTFQALEVASSVTSAYDEIGSDSEEDFDYSEALSKLCPPSQSRLKQPQPQPTQAQSSGQGPLATSPSNPEAMCSDSETSSTSSSREAGCRAKLSWLQRKAPKNPAVEKMPLQGELDVNFNPQAAGGETSDSSDPEETLRTAERRARRWRRARVGPEESNRGLPSPGAHPRALHTAQVSDNVSETDISNETQNSRSSTDSVEEKLRNRLYELAMKMSEKETSSGEDQESESKAEPKNQKGSLSSEENNQGVQEELKKKCSAVSLCNISTEVLKVINATEELIAESAGPWEIPPVSTDRENGMFPLGTDQVRLDKQLTSLEENVYLAAGTVYGLEGQLSELEDAARCIHSSTGETELADLEDQVAAAAAQVHHAELQISDIESRISALTIAGLNIAPCVRLTRRRDQKQRSQVQTIDTSRQQRRKLPAPPVKAEKIEASSVTPIKTFNRNFLLQGSSTNRPTASTGDTKDLMEPDLESAVMY
- binding [4]: no binding
